Reference: patent US20230002496A1 (STAIDSON BEIJING BIOPHARMACEUTICALS, published 2023)
Changes are numbered by the printed parent chain. No constants are given. Whether binding was seen depends on the method and setting. Some results given as binding are weak or reduced against the parent protein; the word gives no strength. For some assays here: Where a sequence is shown, tags or fusion partners need not be part of it.

Key:
human GM-CSFRα-6His [1] = target: T1, human GM-CSFRα-6His (human, UniProt P15509 23-320); experiment: ELISA on human GM-CSFRα, antibodies as human IgG1; x axis 'Log Ab concentration', no unit
T1 construct: pTT5-GMRa-6his (ECD), made in 293F cells; also called GMRah; GMRa-6his(ECD)
T1 sequence: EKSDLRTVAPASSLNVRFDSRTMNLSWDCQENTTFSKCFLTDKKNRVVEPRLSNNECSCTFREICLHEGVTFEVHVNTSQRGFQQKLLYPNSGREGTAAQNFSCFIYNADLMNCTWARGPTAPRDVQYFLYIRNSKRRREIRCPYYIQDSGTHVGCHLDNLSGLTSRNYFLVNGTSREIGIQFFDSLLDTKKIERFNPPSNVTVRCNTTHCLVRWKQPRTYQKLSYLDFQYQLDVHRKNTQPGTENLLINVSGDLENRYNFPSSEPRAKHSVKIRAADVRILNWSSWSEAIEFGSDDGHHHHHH

[2] = target: T2, Bavih-GMRa (biotinylated Avi-10His-GMRa(ECD)) (human) (UniProt P15509); experiment: competitive ELISA as in Example 1: GM-CSF coated, biotinylated GM-CSFRα in solution, antibody (human IgG4) titrated; blocked ligand GM-CSF; x axis 'Log Ab concentration', no unit
T2 sequence (chain, biotin on the Avi tag (BirA ligase)): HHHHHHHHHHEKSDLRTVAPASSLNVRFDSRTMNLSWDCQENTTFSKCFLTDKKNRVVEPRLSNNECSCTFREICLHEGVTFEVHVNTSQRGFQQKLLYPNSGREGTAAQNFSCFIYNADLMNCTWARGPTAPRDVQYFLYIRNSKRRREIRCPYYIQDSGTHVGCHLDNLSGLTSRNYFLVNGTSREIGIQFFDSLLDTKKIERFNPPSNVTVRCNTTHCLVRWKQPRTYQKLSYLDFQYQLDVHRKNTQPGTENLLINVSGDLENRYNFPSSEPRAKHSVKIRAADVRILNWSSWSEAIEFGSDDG

[3] = target: cynomolgus monkey GM-CSFRα-6His (cynomolgus monkey); experiment: ELISA, IgG4 on mGMRah
[4] = target: cynomolgus monkey GM-CSFRα-6His (cynomolgus monkey); experiment: ELISA on cynomolgus monkey GM-CSFRα (mGMRah), antibodies as human IgG4; x axis 'Log Ab concentration', no unit
[5] = target: T2, Bavih-GMRa (biotinylated Avi-10His-GMRa(ECD)) (human); experiment: competitive ELISA as in Example 1: GM-CSF coated, biotinylated GM-CSFRα in solution, antibody (human IgG4) titrated; blocked ligand GM-CSF; x axis numbered 0-4 without label or unit
human GM-CSFRα-6His [6] = target: T1, human GM-CSFRα-6His; experiment: ELISA, IgG1 on human GM-CSFRα

B1: EII81 (antibody, IgG1, V domains shown)
VH: QMQLVQSGAEVKKPGASVKVSCKVSGYTLTELSIHWVRQAPGKGLEWMGGFDPEDGETIYAQKFQGRVTMTGDTSTDTAYLELSSLRSEDTALYYCATGRYTSLAATYGFDYWGQGTLVTVSS
VL: EIVMTQSPATLSLSPGERATLSCRASQSVSSYLAWYQQKPGQAPRLLIYGASSRATGIPDRFSGSGSGTDFTLTISRLEPEDFAVYYCQQYTNVPDTFGQGTKLEIK
For B1, the binding (human GM-CSFRα-6His [1]) was “binds”.

B2: E35-IgG4 (antibody, V domains shown)
VH: B1 VH with A106T
VL: B1 VL with T92D, V94W, D96Y
notes: human IgG4, human kappa; also called E35-IG4
With B2 the binding [2] was “binds”, the binding [3] was “binds” and the binding [4] was “binds”.

B3: E200a-IgG4 (antibody, V domains shown)
VH: B1 VH with S33P, I34M, S103I, L104I, A105T, A106T, T107N
VL: B1 VL with T92D, V94W, D96P
notes: human IgG4, human kappa
With B3 the binding [3] was “binds” and the binding [4] was “binds”.

B4: T119-IgG4 (antibody, V domains shown)
VH: B1 VH with Y27H, I59N, F64S, T102C, L104T, A105D, A106T, T107C
VL: B1 VL with T92N, V94W, D96P
notes: human IgG4, human kappa; parent antibody
In the case of B4, the binding [2] is reported as “binds”, the binding [3] is reported as “binds” and the binding [5] is reported as “binds”. For the same binder, the binding [4] was “binds”.

B5: E87-IgG4 (antibody, V domains shown)
VH: B1 VH with F64S, T102V, A105F, A106F, T107N
VL: B1 VL with T92N, V94W, D96P
notes: human IgG4, human kappa
In the case of B5, the binding [2] is reported as “binds”, the binding [3] is reported as “binds” and the binding [4] is reported as “binds”.

B6: E108-IgG4 (antibody, V domains shown)
VH: B1 VH with Y27H, S103E, A105Y, A106Q, T107N
VL: B1 VL with T92N, V94W, D96P
For B6, the binding [3] was “binds”, the binding [5] was “binds” and the binding [4] was “binds”.

B7: E01-IgG4 (antibody, V domains shown)
VH: B1 VH with Y27H, I59N, F64S, T102C, L104T, A105D, A106T, T107C
VL: B1 VL with T92D, V94W, D96P
In the case of B7, the binding [2] is reported as “binds”.

B8: E09-IgG4 (antibody, V domains shown)
VH: B1 VH with Y27H, I34M, T102C, S103G, L104H, A106S, T107C
VL: B1 VL with T92N, V94W, D96P
With B8 the binding [2] was “binds”.

B9: E194-IgG4 (antibody, V domains shown)
VH: B1 VH with F64S, S103G, A105M, A106N, T107S
VL: B1 VL with T92D, V94W, D96Y
In the case of B9, the binding [2] is reported as “binds”.

B10: E27-IgG4 (antibody, V domains shown)
VH: B1 VH with T102I, L104F, A105M, A106F
VL: B1 VL with T92N, V94W, D96P
In the case of B10, the binding [2] is reported as “binds”.

B11: E29-IgG4 (antibody, V domains shown)
VH: B1 VH with Y27H, T102C, S103F, L104P, A105D, A106T, T107C
VL: B1 VL with T92D, V94S, D96H
With B11 the binding [2] was “binds”.

B12: E34-IgG4 (antibody, V domains shown)
VH: B1 VH with T102S, S103F, L104T, A105D, A106L, T107A
VL: B1 VL with T92D, N93S, V94S, D96P
In the case of B12, the binding [2] is reported as “binds”.

B13: E40-IgG4 (antibody, V domains shown)
VH: B1 VH with Y27H, A105D, A106E, T107S
VL: B1 VL with T92D, V94S, D96Y
B13 was tested, and the binding [2] was “binds”.

B14: E30-IgG4 (antibody, V domains shown)
VH: B1 VH with Y27H, T102C, L104T, A105D, A106T, T107C
VL: B1 VL with T92D, V94S, D96H
B14 was tested, and the binding [2] was “binds”.

B15: E83-IgG4 (antibody, V domains shown)
VH: B1 VH with F64S, T102C, S103F, L104Y, A105D, A106L, T107C
VL: B1 VL with T92S, V94S, D96P
In the case of B15, the binding [2] is reported as “binds”.

B16: EII81-IgG4 (antibody, V domains shown)
VH: B1 VH
VL: B1 VL
B16 was tested, and the binding [2] was “binds”.

B17: E85-IgG4 (antibody, V domains shown)
VH: B1 VH with F64S, T102S, L104Y, A105F, A106T, T107N
VL: B1 VL with T92N, V94W, D96Y
With B17 the binding [2] was “binds”.

B18: E54-IgG4 (antibody, V domains shown)
VH: B1 VH with I34M, T102S, L104Y, A105D, A106I, T107A
VL: B1 VL with T92N, N93S, V94S, D96P
B18 was tested, and the binding [2] was “binds”.

B19: EII55-IgG4 (antibody, V domains shown)
VH: B1 VH with P53G, E54D, D55W, G56H, A105D
VL: B1 VL with T92G, V94R
For B19, the binding [2] was “binds”.

B20: E31-IgG4 (antibody, V domains shown)
VH: B1 VH with F64S, T102S, S103E, L104S, A105F, T107S
VL: B1 VL with T92D, V94W, D96Y
B20 was tested, and the binding [2] was “binds”.

B21: E105-IgG4 (antibody, V domains shown)
VH: B1 VH with A105M, A106F
VL: B1 VL with T92N, V94W, D96P
In the case of B21, the binding [2] is reported as “binds”.

B22: E84-IgG4 (antibody, V domains shown)
VH: B1 VH with I34M, F64S, S103R, L104G, A105W, A106F, T107N
VL: B1 VL with T92N, V94W, D96Y
B22 was tested, and the binding [2] was “binds”.

B23: E164-IgG4 (antibody, V domains shown)
VH: B1 VH with Y27H, I34M, F64S, S103N, L104D, A105F, T107N
VL: B1 VL with T92N, V94W, D96Y
B23 was tested, and the binding [5] was “binds”.

B24: E172-IgG4 (antibody, V domains shown)
VH: B1 VH with I34M, T102A, S103N, A105Y, A106N, T107N
VL: B1 VL with T92N, V94W, D96P
With B24 the binding [5] was “binds”.

B25: E16-IgG4 (antibody, V domains shown)
VH: B1 VH with T58A, F64S, T102S, S103E, L104H, A105S, A106T, T107S
VL: B1 VL with T92D, N93S, V94W, D96Y
With B25 the binding [5] was “binds”.

B26: E36-IgG4 (antibody, V domains shown)
VH: B1 VH with Y27H, I34M, T102A, S103F, L104I, A105D, A106T, T107A
VL: B1 VL with T92S, V94S, D96P
For B26, the binding [5] was “binds”.

B27: E61-IgG4 (antibody, V domains shown)
VH: B1 VH with I34M, T102A, S103W, L104T, A105D, A106I, T107A
VL: B1 VL with T92D, V94S, D96S
For B27, the binding [5] was “binds”.

B28: E88-IgG4 (antibody, V domains shown)
VH: B1 VH with Y27H, I34M, T102C, S103H, L104K, A105D, A106G, T107C
VL: B1 VL with T92D, N93S, V94S, D96H
In the case of B28, the binding [5] is reported as “binds”.

B29: E39-IgG4 (antibody, V domains shown)
VH: B1 VH with Y27H, T102C, L104S, A105D, A106L, T107C
VL: B1 VL with T92D, V94S, D96H
With B29 the binding [5] was “binds”.

B30: E36-IgG1 (antibody, V domains shown)
VH: B1 VH with Y27H, I34M, T102A, S103F, L104I, A105D, A106T, T107A
VL: B1 VL with T92S, V94S, D96P
In the case of B30, the binding (human GM-CSFRα-6His [6]) is reported as “binds” and the binding (human GM-CSFRα-6His [1]) is reported as “binds”.
